Reference: patent US20250257123A1
These are yes or no findings as the source states them, for the method shown. Some entries that bind do so weakly or less than the wild type.

T1: human Gremlin-2 (human) (UniProt Q9H772)
T1 sequence: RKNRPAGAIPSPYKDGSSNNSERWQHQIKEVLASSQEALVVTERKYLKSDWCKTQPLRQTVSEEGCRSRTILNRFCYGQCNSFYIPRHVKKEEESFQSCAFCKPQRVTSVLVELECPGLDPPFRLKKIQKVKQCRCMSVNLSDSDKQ

T2: human Gremlin-1 (human) (UniProt O60565)
T2 sequence: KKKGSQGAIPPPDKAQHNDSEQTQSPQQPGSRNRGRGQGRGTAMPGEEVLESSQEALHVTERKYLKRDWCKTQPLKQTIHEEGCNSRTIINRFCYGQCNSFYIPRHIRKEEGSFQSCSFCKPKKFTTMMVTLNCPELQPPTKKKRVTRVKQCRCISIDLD


Assays:
human Gremlin-2 (human) [1] = molecular target: T1, human Gremlin-2 (human); experiment: ELISA (FIG. 2A)
human Gremlin-1 (human) [2] = molecular target: T2, human Gremlin-1 (human); experiment: ELISA (FIG. 2A)
human Gremlin-2 (human) [3] = molecular target: T1, human Gremlin-2 (human); experiment: ELISA, coated antigen, anti-human IgG4-HRP, OD 492 nm (FIG. 2A)
human Gremlin-1 (human) [4] = molecular target: T2, human Gremlin-1 (human); experiment: as above

Row | Binder | binding (human Gremlin-2 (human) [1]) | binding (human Gremlin-1 (human) [2]) | binding (human Gremlin-2 (human) [3]) | binding (human Gremlin-1 (human) [4])
1 | humanized 14-D10-2 variant Var_3 (antibody, human IgG4, V domains shown) VH: EVQLVQSGPEVVKPGASVKVSCKASGYSFTGYYMHWVRQAPGQGLEWMGYFFPYNGFSNYAQKFQGRVTLTVDKSKSTAYMELSRLRSEDTATYYCARGGLGRGYFDVWGQGTLVTVSS VL: DIQMTQSPSSLSASLGDRVTITCKASDHINNWLAWYQQKPGKAPRLLISGATSLETGVPSRFSGSGSGTDYTLTISSLQPEDVATYYCQQYWSSPRTFGGGTKLEIK | binds | binds | binds | binds
2 | humanized 14-D10-2 variant Var_7 (antibody, human IgG4, V domains shown) VH: EVQLVQSGPEVVKPGASVKVSCKASGYSFTGYYMHWVRQAPGQGLEWMGYFFPYSGFSNYAQKFQGRVTLTVDKSKSTAYMELSRLRSEDTATYYCARGGLGRGYFDVWGQGTLVTVSS VL: DIQMTQSPSSLSASLGDRVTITCKASDHINNWLAWYQQKPGKAPRLLISGATSLETGVPSRFSGSGSGTDYTLTISSLQPEDVATYYCQQYWSSPRTFGGGTKLEIK | binds | binds | binds | binds
3 | chimeric antibody control (chimeric 14-D10-2) (antibody, V domains shown, not shown: a dimerising Fc or GST; large carriers) VH: EVQLQQSGPELVKPGASVKISCKASGYSFTGYYMHWVKQSHGNILDWIGYFFPYNGFSNCNQKFKGKATLTVDKSSSTAYMELRSLTSEDSAVYYCARGGLGRGYFDVWGTGTTVTVSS VL: DIQMTQSPSYLSVSLGGRVTITCKASDHINNWLAWYQQKPGNAPRLLISGATSLETGVPSRFSGSGSGKDYTLSITSLQTEDVATYYCQQYWSSPRTFGGGTKLEIK | binds | binds | – | –
4 | humanized 14-D10-2 variant Var_5 (antibody, human IgG4, V domains shown) VH: EVQLVQSGPEVVKPGASVKVSCKASGYSFTGYYMHWVKQAPGQGLEWMGYFFPYSGFSNYAQKFQGRVTLTVDKSISTAYMELSRLRSEDTAVYYCARGGLGRGYFDVWGQGTLVTVSS VL: DIQMTQSPSSLSASLGDRVTITCKASDHINNWLAWYQQKPGKAPRLLISGATSLETGVPSRFSGSGSGTDYTLTISSLQPEDVATYYCQQYWSSPRTFGGGTKLEIK | binds | binds | binds | binds

Second part, the binder after the results:

Row | binding (human Gremlin-2 (human) [1]) | binding (human Gremlin-1 (human) [2]) | binding (human Gremlin-2 (human) [3]) | binding (human Gremlin-1 (human) [4]) | Binder
5 | binds | binds | binds | binds | humanized 14-D10-2 variant Var_11 (antibody, human IgG4, V domains shown) VH: EVQLVQSGPEVVKPGASVKVSCKASGYSFTGYYMHWVRQAPGQGLEWMGYFFPYNGFSNYAQKFQGRVTLTVDKSKSTAYMELSRLRSEDTATYYCARGGLGRGYFDVWGQGTLVTVSS VL: DIQMTQSPSSLSASLGDRVTITCKASDHISNWLAWYQQKPGKAPRLLISGATSLETGVPSRFSGSGSGTDYTLTISSLQPEDVATYYCQQYWSSPRTFGGGTKLEIK
6 | binds | binds | binds | binds | humanized 14-D10-2 variant Var_13 (antibody, human IgG4, V domains shown) VH: EVQLVQSGPEVVKPGASVKVSCKASGYSFTGYYMHWVKQAPGQGLEWMGYFFPYSGFSNYAQKFQGRVTLTVDKSISTAYMELSRLRSEDTAVYYCARGGLGRGYFDVWGQGTLVTVSS VL: DIQMTQSPSSLSASLGDRVTITCKASDHISNWLAWYQQKPGKAPRLLISGATSLETGVPSRFSGSGSGTDYTLTISSLQPEDVATYYCQQYWSSPRTFGGGTKLEIK
